Reference: the supplement of paper PMC10849652
This is one part of the list.

Chains of the proteins cited; added tags and fusions are not shown. Lines headed by an entry give the natural chain unless they say otherwise; changes in a name come on top.
UniProt Q99707: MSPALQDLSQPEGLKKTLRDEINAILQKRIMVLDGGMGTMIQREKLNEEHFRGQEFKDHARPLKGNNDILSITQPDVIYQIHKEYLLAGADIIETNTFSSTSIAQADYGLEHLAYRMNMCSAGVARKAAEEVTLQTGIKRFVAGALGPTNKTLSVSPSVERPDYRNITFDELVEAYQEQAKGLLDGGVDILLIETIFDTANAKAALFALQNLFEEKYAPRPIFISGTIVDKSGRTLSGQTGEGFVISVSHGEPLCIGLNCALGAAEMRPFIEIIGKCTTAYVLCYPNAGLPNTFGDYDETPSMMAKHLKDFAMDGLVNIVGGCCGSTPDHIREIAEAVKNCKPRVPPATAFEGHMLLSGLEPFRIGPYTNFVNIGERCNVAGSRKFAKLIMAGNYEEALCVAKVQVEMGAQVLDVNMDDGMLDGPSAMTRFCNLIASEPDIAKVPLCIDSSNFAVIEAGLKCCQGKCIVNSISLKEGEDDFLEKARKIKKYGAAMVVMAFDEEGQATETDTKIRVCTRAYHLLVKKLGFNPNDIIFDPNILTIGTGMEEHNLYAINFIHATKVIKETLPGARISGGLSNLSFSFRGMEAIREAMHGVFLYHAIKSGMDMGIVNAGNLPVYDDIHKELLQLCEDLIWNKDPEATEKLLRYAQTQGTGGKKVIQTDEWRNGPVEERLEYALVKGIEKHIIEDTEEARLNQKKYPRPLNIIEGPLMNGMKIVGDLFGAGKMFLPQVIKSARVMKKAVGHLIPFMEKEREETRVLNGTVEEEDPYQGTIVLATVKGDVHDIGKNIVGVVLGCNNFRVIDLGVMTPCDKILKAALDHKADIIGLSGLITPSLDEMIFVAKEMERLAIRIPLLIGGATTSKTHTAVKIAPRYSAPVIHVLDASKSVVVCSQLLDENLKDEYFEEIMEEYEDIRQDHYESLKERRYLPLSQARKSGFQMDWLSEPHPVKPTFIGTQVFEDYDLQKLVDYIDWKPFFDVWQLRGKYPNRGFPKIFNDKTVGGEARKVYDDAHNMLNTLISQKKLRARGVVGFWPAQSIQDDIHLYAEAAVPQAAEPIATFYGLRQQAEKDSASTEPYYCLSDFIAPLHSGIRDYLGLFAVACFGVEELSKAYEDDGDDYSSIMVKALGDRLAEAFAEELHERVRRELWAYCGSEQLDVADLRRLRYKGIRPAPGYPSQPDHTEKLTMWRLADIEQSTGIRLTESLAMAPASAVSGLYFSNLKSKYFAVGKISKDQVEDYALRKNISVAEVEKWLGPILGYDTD
UniProt Q96E11: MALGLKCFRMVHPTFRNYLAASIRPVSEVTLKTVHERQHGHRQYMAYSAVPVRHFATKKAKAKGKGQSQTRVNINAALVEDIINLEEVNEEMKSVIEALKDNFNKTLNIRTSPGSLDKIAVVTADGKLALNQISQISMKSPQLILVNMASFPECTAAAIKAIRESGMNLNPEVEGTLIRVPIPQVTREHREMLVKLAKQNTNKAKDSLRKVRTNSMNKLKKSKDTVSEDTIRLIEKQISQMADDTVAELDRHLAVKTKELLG
UniProt Q9BUK6: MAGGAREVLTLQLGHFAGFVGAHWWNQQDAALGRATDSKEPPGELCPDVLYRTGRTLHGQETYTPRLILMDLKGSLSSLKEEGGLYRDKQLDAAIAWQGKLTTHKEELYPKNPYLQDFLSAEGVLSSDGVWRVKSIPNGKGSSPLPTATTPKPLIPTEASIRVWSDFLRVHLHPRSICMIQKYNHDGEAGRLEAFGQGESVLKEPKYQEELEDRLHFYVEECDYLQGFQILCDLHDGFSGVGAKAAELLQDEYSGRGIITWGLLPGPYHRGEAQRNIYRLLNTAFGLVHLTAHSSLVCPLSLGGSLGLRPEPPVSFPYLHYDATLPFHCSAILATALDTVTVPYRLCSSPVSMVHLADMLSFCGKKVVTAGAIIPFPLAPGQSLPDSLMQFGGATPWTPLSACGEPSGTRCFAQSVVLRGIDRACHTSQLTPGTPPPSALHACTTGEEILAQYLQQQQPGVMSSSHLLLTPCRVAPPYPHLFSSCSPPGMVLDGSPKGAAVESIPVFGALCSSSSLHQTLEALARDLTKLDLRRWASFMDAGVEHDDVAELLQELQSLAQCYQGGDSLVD
UniProt Q9ULH7: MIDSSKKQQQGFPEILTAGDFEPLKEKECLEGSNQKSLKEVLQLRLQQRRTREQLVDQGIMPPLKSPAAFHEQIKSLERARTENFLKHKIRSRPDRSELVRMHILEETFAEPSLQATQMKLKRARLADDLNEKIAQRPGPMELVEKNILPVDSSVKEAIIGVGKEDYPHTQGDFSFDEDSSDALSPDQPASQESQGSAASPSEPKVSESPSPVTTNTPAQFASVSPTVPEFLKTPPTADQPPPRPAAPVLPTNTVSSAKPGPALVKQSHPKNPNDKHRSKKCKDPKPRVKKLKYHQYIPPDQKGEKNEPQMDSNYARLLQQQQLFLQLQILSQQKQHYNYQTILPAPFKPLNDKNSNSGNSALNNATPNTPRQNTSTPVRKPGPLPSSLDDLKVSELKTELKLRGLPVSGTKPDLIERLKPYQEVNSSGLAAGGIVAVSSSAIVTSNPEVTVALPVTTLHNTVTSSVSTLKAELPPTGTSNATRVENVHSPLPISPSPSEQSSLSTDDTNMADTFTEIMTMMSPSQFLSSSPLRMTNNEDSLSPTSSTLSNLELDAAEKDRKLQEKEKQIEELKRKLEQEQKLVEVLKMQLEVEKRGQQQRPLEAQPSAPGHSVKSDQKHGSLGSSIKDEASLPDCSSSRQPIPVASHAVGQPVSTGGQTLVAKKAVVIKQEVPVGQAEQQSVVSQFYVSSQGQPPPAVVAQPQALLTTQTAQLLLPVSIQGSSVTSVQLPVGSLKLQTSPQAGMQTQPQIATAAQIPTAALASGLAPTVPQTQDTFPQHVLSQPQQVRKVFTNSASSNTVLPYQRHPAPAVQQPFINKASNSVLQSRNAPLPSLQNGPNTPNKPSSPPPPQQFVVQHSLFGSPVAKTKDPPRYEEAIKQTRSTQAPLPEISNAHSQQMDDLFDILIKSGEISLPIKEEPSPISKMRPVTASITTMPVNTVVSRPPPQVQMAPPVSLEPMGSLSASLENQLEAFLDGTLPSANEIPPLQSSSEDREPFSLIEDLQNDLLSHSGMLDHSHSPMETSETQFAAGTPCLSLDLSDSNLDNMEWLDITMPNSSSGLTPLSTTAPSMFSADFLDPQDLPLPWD
UniProt P52701: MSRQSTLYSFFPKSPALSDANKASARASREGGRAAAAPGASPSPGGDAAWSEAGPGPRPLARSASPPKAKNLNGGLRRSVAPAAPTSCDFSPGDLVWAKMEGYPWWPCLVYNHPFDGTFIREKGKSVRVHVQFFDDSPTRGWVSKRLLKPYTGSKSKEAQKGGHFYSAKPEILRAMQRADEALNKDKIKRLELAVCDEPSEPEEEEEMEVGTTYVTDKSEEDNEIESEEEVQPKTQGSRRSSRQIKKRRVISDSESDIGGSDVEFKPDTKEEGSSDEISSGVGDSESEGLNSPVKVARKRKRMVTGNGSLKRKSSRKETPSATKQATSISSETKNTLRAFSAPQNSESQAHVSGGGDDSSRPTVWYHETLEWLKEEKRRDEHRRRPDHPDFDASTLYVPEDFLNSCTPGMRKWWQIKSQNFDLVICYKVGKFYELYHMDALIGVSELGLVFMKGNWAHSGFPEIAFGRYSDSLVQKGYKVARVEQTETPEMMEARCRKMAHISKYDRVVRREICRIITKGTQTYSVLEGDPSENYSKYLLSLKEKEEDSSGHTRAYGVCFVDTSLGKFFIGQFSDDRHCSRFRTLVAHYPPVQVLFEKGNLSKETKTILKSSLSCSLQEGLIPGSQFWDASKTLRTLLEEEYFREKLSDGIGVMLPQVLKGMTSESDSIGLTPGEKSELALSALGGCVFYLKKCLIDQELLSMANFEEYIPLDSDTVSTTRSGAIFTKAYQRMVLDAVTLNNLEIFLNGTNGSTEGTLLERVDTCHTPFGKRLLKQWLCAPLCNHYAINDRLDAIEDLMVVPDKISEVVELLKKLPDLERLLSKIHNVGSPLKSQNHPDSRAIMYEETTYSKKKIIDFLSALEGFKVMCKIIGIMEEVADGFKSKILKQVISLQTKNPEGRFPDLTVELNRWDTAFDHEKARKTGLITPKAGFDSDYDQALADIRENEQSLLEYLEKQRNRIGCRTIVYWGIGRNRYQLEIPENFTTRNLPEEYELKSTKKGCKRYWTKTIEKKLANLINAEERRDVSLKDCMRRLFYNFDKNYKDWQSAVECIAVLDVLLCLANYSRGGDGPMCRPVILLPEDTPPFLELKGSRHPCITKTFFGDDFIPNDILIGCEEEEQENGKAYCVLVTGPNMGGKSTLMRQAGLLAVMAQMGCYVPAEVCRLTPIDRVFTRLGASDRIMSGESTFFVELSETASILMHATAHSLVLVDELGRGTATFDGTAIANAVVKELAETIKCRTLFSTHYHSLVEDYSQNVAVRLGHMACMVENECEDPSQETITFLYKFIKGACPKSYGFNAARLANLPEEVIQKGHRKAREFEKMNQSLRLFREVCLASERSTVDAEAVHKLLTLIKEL
UniProt P20585: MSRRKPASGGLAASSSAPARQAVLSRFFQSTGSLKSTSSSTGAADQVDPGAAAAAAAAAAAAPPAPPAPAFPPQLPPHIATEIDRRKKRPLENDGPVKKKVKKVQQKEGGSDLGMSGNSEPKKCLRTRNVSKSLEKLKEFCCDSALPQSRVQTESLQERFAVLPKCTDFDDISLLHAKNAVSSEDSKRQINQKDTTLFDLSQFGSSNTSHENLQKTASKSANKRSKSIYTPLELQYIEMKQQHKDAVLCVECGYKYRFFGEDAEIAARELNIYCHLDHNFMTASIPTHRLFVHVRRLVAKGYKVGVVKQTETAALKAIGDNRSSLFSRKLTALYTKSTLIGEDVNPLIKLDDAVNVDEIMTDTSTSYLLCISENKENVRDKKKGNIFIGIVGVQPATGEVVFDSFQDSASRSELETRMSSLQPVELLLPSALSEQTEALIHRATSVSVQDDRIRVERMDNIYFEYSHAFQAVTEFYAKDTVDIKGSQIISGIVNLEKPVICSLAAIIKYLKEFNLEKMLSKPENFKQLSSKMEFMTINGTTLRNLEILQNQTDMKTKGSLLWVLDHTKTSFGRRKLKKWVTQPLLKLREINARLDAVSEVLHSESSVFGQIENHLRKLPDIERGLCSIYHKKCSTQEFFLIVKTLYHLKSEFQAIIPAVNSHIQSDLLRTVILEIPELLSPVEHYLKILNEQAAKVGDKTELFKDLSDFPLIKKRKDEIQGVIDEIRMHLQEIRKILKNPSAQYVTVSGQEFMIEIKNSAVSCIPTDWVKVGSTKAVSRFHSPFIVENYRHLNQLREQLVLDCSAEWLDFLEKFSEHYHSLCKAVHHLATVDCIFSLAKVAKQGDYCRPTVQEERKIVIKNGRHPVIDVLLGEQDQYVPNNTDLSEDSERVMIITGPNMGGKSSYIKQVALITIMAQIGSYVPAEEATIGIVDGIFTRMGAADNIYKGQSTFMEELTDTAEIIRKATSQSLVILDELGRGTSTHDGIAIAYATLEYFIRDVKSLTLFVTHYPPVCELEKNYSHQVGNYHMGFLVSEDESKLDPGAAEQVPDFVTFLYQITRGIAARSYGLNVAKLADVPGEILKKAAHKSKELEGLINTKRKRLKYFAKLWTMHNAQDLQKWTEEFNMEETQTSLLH

Legend:
Assay in all cases: log2 fold change, soluble protein after heating vs DMSO (PISA); higher = thermal stabilisation; K562 lysate, 10 uM; active = over 0.2 and 3.5 SD of the protein, either way, in both replicates (recomputed)
lapatinib = compound: CS(=O)(=O)CCNCc1ccc(-c2ccc3ncnc(Nc4ccc(OCc5cccc(F)c5)c(Cl)c4)c3c2)o1 [lapatinib]
Method in brief: (§1)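 Quantification was by TMTpro 16plex LC-MS/MS with equalised channel sums, applied to the supernatant after 21,000xg for 90 min. Samples were crude K562 extract at 1 mg/mL protein in PBS pH 7.4 with 1 mM MgCl2, treated with 10 μM compound for 30 min, heated for 3 min across 48°C-58°C, pooled and brought to 0.5% NP-40 at 4°C. Values are log-two fold changes in thermal stability relative to solvent controls, from duplicates.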

pictilisib = compound: CS(=O)(=O)N1CCN(Cc2cc3nc(-c4cccc5[nH]ncc45)nc(N4CCOCC4)c3s2)CC1 [pictilisib]
Method in brief: as §1

crizotinib = compound: C[C@@H](Oc1cc(-c2cnn(C3CCNCC3)c2)cnc1N)c1c(Cl)ccc(F)c1Cl [crizotinib]
Method in brief: as §1

[1] = compound: C[C@H](C1=CC=C(C=C1)C(=O)NC2=C3C=CNC3=NC=C2)N
Method in brief: as §1

duvelisib = compound: C[C@H](Nc1ncnc2nc[nH]c12)c1cc2cccc(Cl)c2c(=O)n1-c1ccccc1 [duvelisib]
Method in brief: as §1

gandotinib = compound: Cc1cc(Nc2cc(CN3CCOCC3)c3nc(C)c(Cc4ccc(Cl)cc4F)n3n2)n[nH]1 [gandotinib]
Method in brief: as §1

tozasertib = compound: Cc1cc(Nc2cc(N3CCN(C)CC3)nc(Sc3ccc(NC(=O)C4CC4)cc3)n2)n[nH]1 [tozasertib]
Method in brief: as §1

doramapimod = compound: Cc1ccc(-n2nc(C(C)(C)C)cc2NC(=O)Nc2ccc(OCCN3CCOCC3)c3ccccc23)cc1 [doramapimod]
Method in brief: as §1

bafetinib = compound: Cc1ccc(NC(=O)c2ccc(CN3CC[C@H](N(C)C)C3)c(C(F)(F)F)c2)cc1Nc1nccc(-c2cncnc2)n1 [bafetinib]
Method in brief: as §1

[2] = compound: Cc1cccc(CC(=O)N2CCc3c2ccc(-c2cn(C)c4ncnc(N)c24)c3F)n1
Method in brief: as §1

nilotinib = compound: Cc1cn(-c2cc(NC(=O)c3ccc(C)c(Nc4nccc(-c5cccnc5)n4)c3)cc(C(F)(F)F)c2)cn1 [nilotinib]
Method in brief: as §1

[3] = compound: Cc1nc(Nc2n[nH]c3c2CN(C(=O)N[C@H](CN(C)C)c2ccccc2)C3(C)C)c2sccc2n1
Method in brief: as §1

dasatinib = compound: Cc1nc(Nc2ncc(C(=O)Nc3c(C)cccc3Cl)s2)cc(N2CCN(CCO)CC2)n1 [dasatinib]
Method in brief: as §1

[4] = compound: Cc1ncc(-c2ccnc(Nc3ccc(S(C)(=O)=O)cc3)n2)n1C(C)C
Method in brief: as §1

[5] = compound: Cn1cc(-c2ccc3c(c2)CCN3C(=O)Cc2cccc(C(F)(F)F)c2)c2c(N)ncnc21
Method in brief: as §1

quisinostat = compound: Cn1cc(CNCC2CCN(c3ncc(C(=O)NO)cn3)CC2)c2ccccc21 [quisinostat]
Method in brief: as §1

tipifarnib = compound: Cn1cncc1[C@@](N)(c1ccc(Cl)cc1)c1ccc2c(c1)c(-c1cccc(Cl)c1)cc(=O)n2C [tipifarnib]
Method in brief: as §1

[6] = compound: NC(=O)Nc1cc(-c2cccc(F)c2)sc1C(=O)N[C@H]1CCCNC1
Method in brief: as §1

[7] = compound: NC(=O)c1cnc(N[C@@H]2CCCC[C@@H]2N)nc1Nc1cccc(-n2nccn2)c1
Method in brief: as §1

[8] = compound: NC1(c2ccc(-c3nc4ccn5c(=O)[nH]nc5c4cc3-c3ccccc3)cc2)CCC1
Method in brief: as §1

Target | log2 fold change (lapatinib) | log2 fold change (pictilisib) | log2 fold change (crizotinib) | log2 fold change [1] | log2 fold change (duvelisib) | log2 fold change (gandotinib) | log2 fold change (tozasertib) | log2 fold change (doramapimod) | log2 fold change (bafetinib) | log2 fold change [2] | log2 fold change (nilotinib) | log2 fold change [3] | log2 fold change (dasatinib) | log2 fold change [4] | log2 fold change [5] | log2 fold change (quisinostat) | log2 fold change (tipifarnib) | log2 fold change [6] | log2 fold change [7] | log2 fold change [8]
MRPL40 (UniProt Q9NQ50) | inactive: -0.003 | inactive: 0.093 | inactive: -0.013 | inactive: 0.031 | inactive: 0.002 | inactive: -0.06 | inactive: -0.045 | inactive: -0.023 | inactive: 0.015 | inactive: -0.026 | inactive: -0.033 | inactive: 0.007 | inactive: -0.055 | inactive: 0.012 | inactive: -0.016 | inactive: 0.018 | inactive: -0.008 | inactive: 0.017 | inactive: -0.029 | inactive: -0.011
MRPL49 (UniProt Q13405) | inactive: 0.033 | inactive: 0.045 | inactive: 0.043 | inactive: 0.06 | inactive: 0.003 | inactive: -0.057 | inactive: 0.071 | inactive: -0.015 | inactive: -0.032 | inactive: 0.033 | inactive: 0.043 | inactive: -0.052 | inactive: -0.015 | inactive: 0.088 | inactive: 0.045 | inactive: 0.034 | inactive: 0.054 | inactive: -0.016 | inactive: 0.014 | inactive: -0.035
MTR (UniProt Q99707) | inactive: 0.042 | inactive: -0.017 | inactive: -0.018 | inactive: -0.062 | inactive: 0.012 | inactive: -0.009 | inactive: -0.016 | inactive: -0.004 | inactive: -0.053 | inactive: 0.039 | inactive: -0.013 | inactive: -0.009 | inactive: -0.022 | inactive: 0.006 | inactive: 0.002 | inactive: -0.047 | inactive: -0.01 | inactive: 0.049 | inactive: -0.009 | inactive: -0.003
MRRF (UniProt Q96E11) | inactive: -0.012 | inactive: 0.017 | inactive: 0.014 | inactive: 0 | inactive: -0.044 | inactive: 0.049 | inactive: -0.015 | inactive: -0.02 | inactive: 0 | inactive: -0.01 | inactive: 0 | inactive: 0.021 | inactive: 0.002 | inactive: 0.031 | inactive: 0.009 | inactive: 0.043 | inactive: 0.029 | inactive: 0 | inactive: -0.004 | inactive: 0.017
MRPS18A isoform 2 (UniProt Q9NVS2) | inactive: 0.005 | inactive: -0.046 | inactive: -0.02 | inactive: 0.262 | inactive: -0.133 | inactive: -0.164 | inactive: 0.043 | inactive: -0.005 | inactive: 0 | inactive: -0.226 | inactive: 0.031 | inactive: -0.022 | inactive: -0.054 | inactive: -0.033 | inactive: 0.006 | inactive: -0.012 | inactive: -0.026 | inactive: 0.036 | inactive: 0.014 | inactive: -0.065
MSTO1 (UniProt Q9BUK6) | inactive: -0.042 | inactive: -0.005 | inactive: -0.044 | inactive: 0.047 | inactive: 0.037 | inactive: -0.091 | inactive: 0.014 | inactive: -0.032 | inactive: -0.038 | inactive: -0.052 | inactive: -0.009 | inactive: 0.031 | inactive: 0.019 | inactive: -0.053 | inactive: 0.005 | inactive: -0.054 | inactive: -0.006 | inactive: 0.008 | inactive: -0.02 | inactive: 0.054
MRTFB isoform 5 (UniProt Q9ULH7) | inactive: 0.038 | inactive: -0.015 | inactive: -0.029 | inactive: 0.018 | inactive: 0.021 | inactive: 0.021 | inactive: -0.036 | inactive: 0.006 | inactive: -0.033 | inactive: -0.016 | inactive: -0.023 | inactive: 0.016 | inactive: -0.028 | inactive: -0.006 | inactive: 0.006 | inactive: -0.026 | inactive: -0.035 | inactive: 0.01 | inactive: 0.01 | inactive: 0.013
MRPS18C (UniProt Q9Y3D5) | inactive: 0.072 | inactive: -0.043 | inactive: -0.092 | inactive: 0.01 | inactive: 0.002 | inactive: 0.035 | inactive: 0.031 | inactive: 0.046 | inactive: -0.023 | inactive: -0.059 | inactive: 0.031 | inactive: -0.059 | inactive: -0.033 | inactive: -0.011 | inactive: -0.078 | inactive: -0.021 | inactive: -0.002 | inactive: -0.009 | inactive: 0.018 | inactive: -0.042
MRPS5 (UniProt P82675) | inactive: 0.025 | inactive: -0.003 | inactive: -0.01 | inactive: -0.027 | inactive: 0.017 | inactive: -0.041 | inactive: 0.039 | inactive: 0.046 | inactive: -0.002 | inactive: 0.044 | inactive: -0.037 | inactive: 0.044 | inactive: 0.009 | inactive: -0.001 | inactive: 0.042 | inactive: -0.009 | inactive: 0.016 | inactive: 0.025 | inactive: 0.021 | inactive: -0.018
MSH6 (UniProt P52701) | inactive: -0.004 | inactive: -0.005 | inactive: -0.076 | inactive: -0.003 | inactive: 0.014 | inactive: -0.087 | inactive: 0.013 | inactive: 0.037 | inactive: -0.051 | inactive: 0.022 | inactive: -0.005 | inactive: 0.011 | inactive: -0.073 | inactive: -0.002 | inactive: 0.03 | inactive: -0.091 | inactive: -0.009 | inactive: 0.072 | inactive: 0.006 | inactive: -0.045
MTOR (UniProt P42345) | inactive: -0.008 | inactive: -0.016 | inactive: -0.068 | inactive: -0.042 | inactive: 0.021 | inactive: -0.079 | inactive: 0.018 | inactive: 0.055 | inactive: -0.015 | inactive: 0.053 | inactive: 0.007 | inactive: -0.022 | inactive: -0.064 | inactive: 0.001 | inactive: 0.039 | inactive: -0.067 | inactive: 0.015 | inactive: 0.04 | inactive: 0.017 | inactive: -0.033
MRPL57 (UniProt Q9BQC6) | inactive: -0.028 | inactive: -0.08 | inactive: -0.044 | inactive: -0.039 | inactive: -0.054 | inactive: 0.054 | inactive: 0.054 | inactive: 0.066 | inactive: 0.019 | inactive: 0.038 | inactive: 0.046 | inactive: -0.076 | inactive: -0.03 | inactive: 0.007 | inactive: -0.045 | inactive: -0.03 | inactive: 0.022 | inactive: 0.003 | inactive: 0.036 | inactive: 0.027
MRPS10 (UniProt P82664) | inactive: 0.027 | inactive: -0.018 | inactive: -0.008 | inactive: -0.066 | inactive: 0.009 | inactive: 0.032 | inactive: -0.031 | inactive: -0.016 | inactive: -0.021 | inactive: 0.026 | inactive: 0.009 | inactive: -0.034 | inactive: -0.004 | inactive: 0.038 | inactive: 0.01 | inactive: -0.034 | inactive: 0 | inactive: -0.011 | inactive: -0.006 | inactive: 0.012
MRPL58 (UniProt Q14197) | inactive: 0.035 | inactive: -0.034 | inactive: -0.063 | active: 0.365 | inactive: -0.034 | inactive: -0.009 | inactive: 0.045 | inactive: -0.026 | inactive: -0.03 | inactive: -0.119 | inactive: -0.022 | inactive: 0.045 | inactive: -0.008 | inactive: -0.012 | inactive: 0.021 | inactive: 0.017 | inactive: 0.003 | inactive: 0.055 | inactive: 0.025 | inactive: -0.032
MRPS27 isoform 2 (UniProt Q92552) | inactive: -0.013 | inactive: -0.036 | inactive: -0.068 | inactive: -0.102 | inactive: 0.019 | inactive: 0.121 | inactive: 0.039 | inactive: 0.016 | inactive: -0.055 | inactive: 0.197 | inactive: 0.023 | inactive: -0.026 | inactive: -0.061 | inactive: 0.056 | inactive: 0.023 | inactive: -0.105 | inactive: -0.031 | inactive: 0.047 | inactive: 0.013 | inactive: -0.016
MSH3 (UniProt P20585) | inactive: -0.021 | inactive: -0.005 | inactive: -0.004 | inactive: -0.018 | inactive: -0.001 | inactive: -0.019 | inactive: 0.021 | inactive: 0.019 | inactive: -0.003 | inactive: 0.028 | inactive: -0.007 | inactive: 0.034 | inactive: -0.03 | inactive: 0.028 | inactive: 0.014 | inactive: -0.037 | inactive: -0.001 | inactive: -0.003 | inactive: 0.011 | inactive: -0.035

Reprinted at random: 2 entries already listed.
Target | log2 fold change (lapatinib) | log2 fold change (pictilisib) | log2 fold change (crizotinib) | log2 fold change [1] | log2 fold change (duvelisib) | log2 fold change (gandotinib) | log2 fold change (tozasertib) | log2 fold change (doramapimod) | log2 fold change (bafetinib) | log2 fold change [2] | log2 fold change (nilotinib) | log2 fold change [3] | log2 fold change (dasatinib) | log2 fold change [4] | log2 fold change [5] | log2 fold change (quisinostat) | log2 fold change (tipifarnib) | log2 fold change [6] | log2 fold change [7] | log2 fold change [8]
MRTFB isoform 5 (UniProt Q9ULH7) | inactive: 0.038 | inactive: -0.015 | inactive: -0.029 | inactive: 0.018 | inactive: 0.021 | inactive: 0.021 | inactive: -0.036 | inactive: 0.006 | inactive: -0.033 | inactive: -0.016 | inactive: -0.023 | inactive: 0.016 | inactive: -0.028 | inactive: -0.006 | inactive: 0.006 | inactive: -0.026 | inactive: -0.035 | inactive: 0.01 | inactive: 0.01 | inactive: 0.013
MRPL57 (UniProt Q9BQC6) | inactive: -0.028 | inactive: -0.08 | inactive: -0.044 | inactive: -0.039 | inactive: -0.054 | inactive: 0.054 | inactive: 0.054 | inactive: 0.066 | inactive: 0.019 | inactive: 0.038 | inactive: 0.046 | inactive: -0.076 | inactive: -0.03 | inactive: 0.007 | inactive: -0.045 | inactive: -0.03 | inactive: 0.022 | inactive: 0.003 | inactive: 0.036 | inactive: 0.027
